{"source": "patent US20060019329A1", "about": "“Method of screening for protein inhibitors and activators” (priority 1988, published 2006)", "origin": "cited, not measured here", "test_system": "serotonin receptor 5HT1c overproducing cell line", "conditions": "5HT1c overproducing cell line (Julius, et al., Science 1989); cited from earlier work", "note": "At least one structure is not confirmed: it was looked up by name or label, or the drawing left a doubt."}
{"smiles": "CN1C[C@@H](NS(=O)(=O)N(C)C)C[C@@H]2c3cccc4c3c(cn4C)C[C@H]21", "note": "[Mesulergine]", "values": [{"measurement": "effect on formation of foci", "result": "completely blocked the formation of foci"}]}
